The other results are listed elsewhere or left out.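 Rule for the calls: active = dose-dependent thermal stabilisation significant by F-test of dose-response against flat model at 10% FDR; inactive = not significant.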
The targets below were run with Nc1nc2c(ncn2[C@@H]2O[C@H](COP(=O)(O)OP(=O)(O)OP(=O)(O)O)[C@@H](O)[C@H]2O)c(=O)[nH]1 (assay: dose-dependent thermal stabilisation call (2D-TPP, DLPTP, 10% FDR) (binary (1 = stabilised)); higher = stabilised by the compound). Details: system: Jurkat gel-filtered lysate; concentration range 1-500 µM.
Procedure: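 2D thermal proteome profiling in gel-filtered Jurkat E6.1 lysate (2 mg/ml) treated with NaGTP (0, 1, 10, 100, 500 uM) for 10 min at room temperature, then heated 3 min at one of 12 temperatures (42-63.9 C). Soluble protein was quantified by TMT10 MS. The value is the DLPTP call of the paper: dose-dependent thermal stabilisation over all temperatures at 10% FDR (F-test of a dose-response against a flat model); one experiment, one call per tested protein.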

Amino acid sequences for entries named in this document (tags omitted). A change or cut given only in a name is not applied to a line headed by its entry.
UniProt P84085: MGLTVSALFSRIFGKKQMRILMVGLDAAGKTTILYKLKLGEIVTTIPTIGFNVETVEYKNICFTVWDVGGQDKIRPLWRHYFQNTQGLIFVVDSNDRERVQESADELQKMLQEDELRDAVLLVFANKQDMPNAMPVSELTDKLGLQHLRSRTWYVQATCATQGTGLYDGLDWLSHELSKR
UniProt P09525: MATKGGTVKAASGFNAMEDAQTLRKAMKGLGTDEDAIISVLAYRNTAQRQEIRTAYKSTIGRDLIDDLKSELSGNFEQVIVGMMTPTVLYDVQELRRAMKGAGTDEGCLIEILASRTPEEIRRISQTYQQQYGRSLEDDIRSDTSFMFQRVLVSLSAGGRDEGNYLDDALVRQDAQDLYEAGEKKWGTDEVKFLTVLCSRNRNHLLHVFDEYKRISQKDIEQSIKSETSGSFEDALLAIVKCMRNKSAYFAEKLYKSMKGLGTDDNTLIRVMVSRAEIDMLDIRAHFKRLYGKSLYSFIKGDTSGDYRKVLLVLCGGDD
UniProt P63010: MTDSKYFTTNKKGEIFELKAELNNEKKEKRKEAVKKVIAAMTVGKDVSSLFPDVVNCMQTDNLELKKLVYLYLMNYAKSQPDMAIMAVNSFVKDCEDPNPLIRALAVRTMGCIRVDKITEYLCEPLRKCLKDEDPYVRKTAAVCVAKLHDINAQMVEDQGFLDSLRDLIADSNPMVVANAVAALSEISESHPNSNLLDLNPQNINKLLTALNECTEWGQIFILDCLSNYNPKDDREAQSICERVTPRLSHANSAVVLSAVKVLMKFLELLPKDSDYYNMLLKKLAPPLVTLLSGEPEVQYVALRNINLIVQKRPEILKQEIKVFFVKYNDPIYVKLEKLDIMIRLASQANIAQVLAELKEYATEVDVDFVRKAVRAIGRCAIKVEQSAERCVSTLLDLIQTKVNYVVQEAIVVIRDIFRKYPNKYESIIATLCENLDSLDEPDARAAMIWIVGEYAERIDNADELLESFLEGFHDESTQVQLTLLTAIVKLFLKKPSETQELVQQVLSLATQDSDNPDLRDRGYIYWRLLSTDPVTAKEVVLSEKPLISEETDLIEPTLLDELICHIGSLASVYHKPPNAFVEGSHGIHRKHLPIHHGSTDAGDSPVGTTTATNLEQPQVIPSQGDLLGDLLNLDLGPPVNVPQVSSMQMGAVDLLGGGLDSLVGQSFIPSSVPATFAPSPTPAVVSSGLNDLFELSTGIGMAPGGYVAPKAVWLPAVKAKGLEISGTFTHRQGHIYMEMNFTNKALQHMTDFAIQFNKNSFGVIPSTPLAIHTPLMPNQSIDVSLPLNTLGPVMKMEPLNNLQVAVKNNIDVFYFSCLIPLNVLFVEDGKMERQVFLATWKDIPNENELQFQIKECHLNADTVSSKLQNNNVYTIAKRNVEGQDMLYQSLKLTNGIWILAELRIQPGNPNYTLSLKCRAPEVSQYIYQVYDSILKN
UniProt Q96BT7: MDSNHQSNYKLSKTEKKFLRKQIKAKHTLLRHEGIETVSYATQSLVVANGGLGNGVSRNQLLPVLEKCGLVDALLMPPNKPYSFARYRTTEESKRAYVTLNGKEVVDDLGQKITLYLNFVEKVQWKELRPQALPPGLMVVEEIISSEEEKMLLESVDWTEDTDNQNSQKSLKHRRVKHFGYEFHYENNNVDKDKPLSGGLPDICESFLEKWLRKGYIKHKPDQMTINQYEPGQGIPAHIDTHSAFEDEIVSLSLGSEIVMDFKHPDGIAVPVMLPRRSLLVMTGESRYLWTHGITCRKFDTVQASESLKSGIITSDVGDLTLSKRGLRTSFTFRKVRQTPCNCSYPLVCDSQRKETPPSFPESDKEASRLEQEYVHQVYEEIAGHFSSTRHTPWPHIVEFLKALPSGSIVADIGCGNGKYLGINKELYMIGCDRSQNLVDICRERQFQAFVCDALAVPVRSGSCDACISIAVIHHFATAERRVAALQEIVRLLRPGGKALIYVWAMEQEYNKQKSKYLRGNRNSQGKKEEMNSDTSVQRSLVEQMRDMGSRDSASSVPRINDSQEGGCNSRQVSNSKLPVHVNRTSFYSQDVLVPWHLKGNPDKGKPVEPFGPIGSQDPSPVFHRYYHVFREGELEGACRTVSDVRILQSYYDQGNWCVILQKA
UniProt Q9BV57: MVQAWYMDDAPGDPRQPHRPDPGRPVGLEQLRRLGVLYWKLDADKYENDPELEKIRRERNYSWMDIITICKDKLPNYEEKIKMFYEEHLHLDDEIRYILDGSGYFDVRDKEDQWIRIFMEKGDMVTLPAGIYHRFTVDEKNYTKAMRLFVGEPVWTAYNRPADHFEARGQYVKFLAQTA
UniProt Q9UJX3, whole entry: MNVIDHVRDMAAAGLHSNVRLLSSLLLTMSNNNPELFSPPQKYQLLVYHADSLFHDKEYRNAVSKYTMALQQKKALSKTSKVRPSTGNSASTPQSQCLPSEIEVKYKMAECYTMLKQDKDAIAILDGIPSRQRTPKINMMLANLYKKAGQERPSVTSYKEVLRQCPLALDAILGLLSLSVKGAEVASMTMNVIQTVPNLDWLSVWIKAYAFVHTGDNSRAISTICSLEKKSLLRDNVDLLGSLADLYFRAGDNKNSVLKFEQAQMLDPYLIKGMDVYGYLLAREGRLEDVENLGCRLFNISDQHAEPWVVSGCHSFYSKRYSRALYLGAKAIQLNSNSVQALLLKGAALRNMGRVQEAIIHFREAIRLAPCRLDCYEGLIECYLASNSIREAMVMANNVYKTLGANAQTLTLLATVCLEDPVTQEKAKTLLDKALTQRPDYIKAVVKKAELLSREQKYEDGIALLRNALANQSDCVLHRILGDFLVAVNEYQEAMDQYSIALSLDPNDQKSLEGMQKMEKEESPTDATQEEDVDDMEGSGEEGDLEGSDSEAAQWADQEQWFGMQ
UniProt Q92624: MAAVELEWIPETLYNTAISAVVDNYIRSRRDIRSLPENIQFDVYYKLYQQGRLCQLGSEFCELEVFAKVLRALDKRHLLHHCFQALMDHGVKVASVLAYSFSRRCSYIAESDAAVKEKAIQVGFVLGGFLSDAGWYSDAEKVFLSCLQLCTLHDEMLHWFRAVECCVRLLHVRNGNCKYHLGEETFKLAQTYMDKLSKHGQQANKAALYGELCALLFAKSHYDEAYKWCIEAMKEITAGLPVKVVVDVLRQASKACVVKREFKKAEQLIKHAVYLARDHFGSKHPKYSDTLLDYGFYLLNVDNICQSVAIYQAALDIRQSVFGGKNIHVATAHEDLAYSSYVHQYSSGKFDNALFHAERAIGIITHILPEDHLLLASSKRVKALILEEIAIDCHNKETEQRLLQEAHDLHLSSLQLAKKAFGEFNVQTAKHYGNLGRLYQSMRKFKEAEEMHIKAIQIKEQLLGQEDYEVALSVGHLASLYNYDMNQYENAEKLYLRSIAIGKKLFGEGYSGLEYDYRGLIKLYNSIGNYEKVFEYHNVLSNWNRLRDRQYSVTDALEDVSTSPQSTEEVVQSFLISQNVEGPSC
UniProt Q99798: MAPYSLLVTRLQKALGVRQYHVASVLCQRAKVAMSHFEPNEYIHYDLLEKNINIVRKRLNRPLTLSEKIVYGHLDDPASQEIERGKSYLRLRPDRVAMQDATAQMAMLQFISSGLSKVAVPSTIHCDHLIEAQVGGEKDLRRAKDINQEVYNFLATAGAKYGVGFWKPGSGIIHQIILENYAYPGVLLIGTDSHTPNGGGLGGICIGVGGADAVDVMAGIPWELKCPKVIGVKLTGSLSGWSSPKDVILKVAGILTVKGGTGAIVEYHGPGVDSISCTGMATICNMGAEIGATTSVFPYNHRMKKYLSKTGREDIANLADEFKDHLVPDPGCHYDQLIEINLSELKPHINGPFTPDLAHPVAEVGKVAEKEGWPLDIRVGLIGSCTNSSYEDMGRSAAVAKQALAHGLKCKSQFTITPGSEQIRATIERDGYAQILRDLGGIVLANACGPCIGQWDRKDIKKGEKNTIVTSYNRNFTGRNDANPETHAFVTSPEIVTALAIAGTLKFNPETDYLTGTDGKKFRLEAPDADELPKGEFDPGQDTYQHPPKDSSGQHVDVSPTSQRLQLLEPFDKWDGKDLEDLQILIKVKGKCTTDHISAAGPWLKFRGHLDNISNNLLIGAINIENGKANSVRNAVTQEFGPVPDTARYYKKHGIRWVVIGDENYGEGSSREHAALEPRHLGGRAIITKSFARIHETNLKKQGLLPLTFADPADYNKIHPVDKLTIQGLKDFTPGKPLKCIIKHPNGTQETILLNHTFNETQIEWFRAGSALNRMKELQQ
UniProt P17707: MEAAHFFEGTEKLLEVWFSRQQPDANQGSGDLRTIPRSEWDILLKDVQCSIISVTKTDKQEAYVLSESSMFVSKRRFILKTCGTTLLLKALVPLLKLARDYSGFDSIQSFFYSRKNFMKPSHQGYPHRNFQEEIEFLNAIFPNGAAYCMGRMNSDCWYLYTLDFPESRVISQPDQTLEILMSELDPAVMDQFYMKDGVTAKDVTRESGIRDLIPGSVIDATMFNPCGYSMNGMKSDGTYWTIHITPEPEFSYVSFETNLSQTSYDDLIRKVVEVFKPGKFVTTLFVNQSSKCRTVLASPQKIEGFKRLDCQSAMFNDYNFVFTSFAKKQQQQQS
UniProt Q6P4F7: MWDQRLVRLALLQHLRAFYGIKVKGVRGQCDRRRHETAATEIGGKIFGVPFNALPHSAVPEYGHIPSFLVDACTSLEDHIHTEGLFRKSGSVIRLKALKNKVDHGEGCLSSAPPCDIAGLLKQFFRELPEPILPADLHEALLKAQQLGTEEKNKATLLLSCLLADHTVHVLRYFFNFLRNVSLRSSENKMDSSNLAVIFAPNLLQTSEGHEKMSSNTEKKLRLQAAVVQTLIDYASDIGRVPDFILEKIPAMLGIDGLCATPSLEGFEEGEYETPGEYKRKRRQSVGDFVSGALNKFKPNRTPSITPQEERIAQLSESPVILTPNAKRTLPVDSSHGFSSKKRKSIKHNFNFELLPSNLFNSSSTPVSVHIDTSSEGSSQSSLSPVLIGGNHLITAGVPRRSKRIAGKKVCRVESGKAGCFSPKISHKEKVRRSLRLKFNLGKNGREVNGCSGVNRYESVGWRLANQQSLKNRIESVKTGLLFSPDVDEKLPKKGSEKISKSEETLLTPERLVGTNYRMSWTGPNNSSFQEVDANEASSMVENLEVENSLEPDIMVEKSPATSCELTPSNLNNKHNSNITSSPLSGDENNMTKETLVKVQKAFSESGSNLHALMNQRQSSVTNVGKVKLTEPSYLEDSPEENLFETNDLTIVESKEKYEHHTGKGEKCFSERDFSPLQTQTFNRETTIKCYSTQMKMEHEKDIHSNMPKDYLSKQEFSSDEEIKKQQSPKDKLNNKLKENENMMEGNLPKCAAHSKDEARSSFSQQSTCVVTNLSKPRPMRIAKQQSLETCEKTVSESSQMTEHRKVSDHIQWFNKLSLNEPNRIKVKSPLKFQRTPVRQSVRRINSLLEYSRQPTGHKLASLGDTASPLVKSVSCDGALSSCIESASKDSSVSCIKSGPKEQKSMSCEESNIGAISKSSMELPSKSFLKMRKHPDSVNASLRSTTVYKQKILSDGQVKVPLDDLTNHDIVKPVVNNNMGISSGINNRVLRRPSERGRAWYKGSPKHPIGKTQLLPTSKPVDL
UniProt Q6NXT1: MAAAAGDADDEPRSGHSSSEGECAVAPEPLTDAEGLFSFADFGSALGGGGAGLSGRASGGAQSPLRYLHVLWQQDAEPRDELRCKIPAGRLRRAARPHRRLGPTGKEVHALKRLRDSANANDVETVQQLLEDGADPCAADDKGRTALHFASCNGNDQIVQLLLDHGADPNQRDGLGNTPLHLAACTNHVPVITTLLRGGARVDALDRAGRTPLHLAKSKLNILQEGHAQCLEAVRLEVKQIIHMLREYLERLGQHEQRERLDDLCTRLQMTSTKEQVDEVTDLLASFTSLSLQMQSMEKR
UniProt Q9NUJ1: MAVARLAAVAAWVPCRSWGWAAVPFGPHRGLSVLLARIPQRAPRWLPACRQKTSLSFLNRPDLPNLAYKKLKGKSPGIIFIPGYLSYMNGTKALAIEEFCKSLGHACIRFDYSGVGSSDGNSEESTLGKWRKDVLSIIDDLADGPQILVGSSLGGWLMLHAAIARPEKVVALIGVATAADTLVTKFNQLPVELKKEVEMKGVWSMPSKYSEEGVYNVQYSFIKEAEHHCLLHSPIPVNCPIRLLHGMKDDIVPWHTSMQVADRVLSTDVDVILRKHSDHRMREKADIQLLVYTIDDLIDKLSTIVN
UniProt P09110: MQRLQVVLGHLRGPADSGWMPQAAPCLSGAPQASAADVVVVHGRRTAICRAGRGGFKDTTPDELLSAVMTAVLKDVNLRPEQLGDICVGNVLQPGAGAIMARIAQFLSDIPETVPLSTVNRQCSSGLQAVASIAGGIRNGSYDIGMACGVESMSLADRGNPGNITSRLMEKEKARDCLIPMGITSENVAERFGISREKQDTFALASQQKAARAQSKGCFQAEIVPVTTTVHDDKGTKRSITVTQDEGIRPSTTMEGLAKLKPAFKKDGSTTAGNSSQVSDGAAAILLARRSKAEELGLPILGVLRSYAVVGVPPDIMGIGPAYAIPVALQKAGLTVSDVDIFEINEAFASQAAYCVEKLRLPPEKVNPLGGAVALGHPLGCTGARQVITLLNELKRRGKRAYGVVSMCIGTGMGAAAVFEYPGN

Target	dose-dependent thermal stabilisation call
ABI2 (UniProt Q9NYB9)	inactive: 0
AK3 (UniProt Q9UIJ7)	inactive: 0
ALYREF (UniProt Q86V81)	inactive: 0
ADAL (UniProt Q6DHV7)	active: 1
ANAPC5 (UniProt Q9UJX4)	inactive: 0
AIF1L (UniProt Q9BQI0)	inactive: 0
AKAP1 (UniProt Q92667)	inactive: 0
AP1B1 (UniProt Q10567)	inactive: 0
ARF5 (UniProt P84085)	active: 1
ACD (UniProt Q96AP0)	inactive: 0
ANAPC1 (UniProt Q9H1A4)	inactive: 0
ANXA4 (UniProt P09525)	active: 1
ARHGAP12 (UniProt Q8IWW6)	active: 1
AP2B1 (UniProt P63010)	inactive: 0
ALKBH8 (UniProt Q96BT7)	inactive: 0
AAGAB (UniProt Q6PD74)	inactive: 0
AK6 (UniProt Q9Y3D8)	inactive: 0
ADI1 (UniProt Q9BV57)	inactive: 0
AP2A1 (UniProt O95782)	active: 1
AMN1 (UniProt Q8IY45)	inactive: 0

Target	dose-dependent thermal stabilisation call
ANAPC7 (UniProt Q9UJX3)	inactive: 0
ARHGAP17 (UniProt Q68EM7)	active: 1
ANKRD10 (UniProt Q9NXR5)	inactive: 0
ARFGAP3 (UniProt Q9NP61)	inactive: 0
APPBP2 (UniProt Q92624)	inactive: 0
ANAPC10 (UniProt Q9UM13)	inactive: 0
ACO2 (UniProt Q99798)	inactive: 0
AP3M1 (UniProt Q9Y2T2)	inactive: 0
AMD1 (UniProt P17707)	inactive: 0
ALAD (UniProt P13716)	inactive: 0
ARHGAP11A (UniProt Q6P4F7)	inactive: 0
AGTPBP1 (UniProt Q9UPW5)	inactive: 0
ANKMY2 (UniProt Q8IV38)	active: 1
ALKBH4 (UniProt Q9NXW9)	inactive: 0
ANP32E (UniProt Q9BTT0)	inactive: 0
ADH5 (UniProt P11766)	inactive: 0
ANKRD54 (UniProt Q6NXT1)	inactive: 0
ABHD10 (UniProt Q9NUJ1)	inactive: 0
ACAA1 (UniProt P09110)	inactive: 0
AK2 (UniProt P54819)	inactive: 0

Two entries picked at random from the list so far:
Target	dose-dependent thermal stabilisation call
ANKRD54 (UniProt Q6NXT1)	inactive: 0
ADH5 (UniProt P11766)	inactive: 0
